Data reported in paper PMC5762833.

By UniProt entry, the sequences of proteins in these tests, tags left out. Where a name states a change or a piece, a line headed by the entry shows the natural chain unless it says otherwise.
UniProt P24557: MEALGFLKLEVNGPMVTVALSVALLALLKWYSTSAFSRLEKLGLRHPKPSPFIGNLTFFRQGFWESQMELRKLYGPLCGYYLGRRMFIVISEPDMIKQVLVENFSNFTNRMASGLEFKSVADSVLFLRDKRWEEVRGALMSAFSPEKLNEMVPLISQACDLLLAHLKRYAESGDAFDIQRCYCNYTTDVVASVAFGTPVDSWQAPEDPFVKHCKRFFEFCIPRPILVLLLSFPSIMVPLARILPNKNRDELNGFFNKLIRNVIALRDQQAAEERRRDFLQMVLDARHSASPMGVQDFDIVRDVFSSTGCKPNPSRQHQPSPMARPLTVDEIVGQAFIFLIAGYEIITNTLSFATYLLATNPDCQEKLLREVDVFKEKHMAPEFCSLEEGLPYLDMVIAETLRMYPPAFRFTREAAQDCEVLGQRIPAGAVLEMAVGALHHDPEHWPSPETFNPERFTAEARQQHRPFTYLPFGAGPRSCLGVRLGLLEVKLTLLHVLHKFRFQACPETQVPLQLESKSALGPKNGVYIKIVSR

target: Human thromboxane synthase (TBXAS1) (human) (UniProt P24557); test: SPR; as a2, with isatin added to the analyte samples at a final concentration of 100 μM and incubated for 15 min; both purified

Binder | binding
aldosterone synthase (CYP11B2) (enzyme, UniProt P19099 25-503) GTRAARAPRTVLPFEAMPQHPGNRWLRLLQIWREQGYEHLHLEMHQTFQELGPIFRYNLGGPRMVCVMLPEDVEKLQQVDSLHPCRMILEPWVAYRQHRGHKCGVFLLNGPEWRFNRLRLNPDVLSPKAVQRFLPMVDAVARDFSQALKKKVLQNARGSLTLDVQPSIFHYTIEASNLALFGERLGLVGHSPSSASLNFLHALEVMFKSTVQLMFMPRSLSRWISPKVWKEHFEAWDCIFQYGDNCIQKIYQELAFNRPQHYTGIVAELLLKAELSLEAIKANSMELTAGSVDTTAFPLLMTLFELARNPDVQQILRQESLAAAASISEHPQKATTELPLLRAALKETLRLYPVGLFLERVVSSDLVLQNYHIPAGTLVQVFLYSLGRNAALFPRPERYNPQRWLDIRGSGRNFHHVPFGFGMRQCLGRRLAEAEMLLLLHHVLKHFLVETLTQEDIKMVYSFILRPGTSPLLTFRAIN | binds

target: Human thromboxane synthase (TBXAS1) (human) (UniProt P24557); test: condition: micromolar concentrations (50 nM to 5 μM injected); SPR; Biacore 3000; TBXAS1 amine-coupled to a CM5 chip (about 7,500 RU); analytes 50 nM to 5 μM injected for 10 min at 5 μL/min; control channel without protein; both purified

Binder | binding
ferrochelatase (FECH) (enzyme, UniProt P22830 55-423) GAKPQVQPQKRKPKTGILMLNMGGPETLGDVHDFLLRLFLDRDLMTLPIQNKLAPFIAKRRTPKIQEQYRRIGGGSPIKIWTSKQGEGMVKLLDELSPNTAPHKYYIGFRYVHPLTEEAIEEMERDGLERAIAFTQYPQYSCSTTGSSLNAIYRYYNQVGRKPTMKWSTIDRWPTHHLLIQCFADHILKELDHFPLEKRSEVVILFSAHSLPMSVVNRGDPYPQEVSATVQKVMERLEYCNPYRLVWQSKVGPMPWLGPQTDESIKGLCERGRKNILLVPIAFTSDHIETLYELDIEYSQVLAKECGVENIRRAESLNGNPLFSKALADLVHSHIQSNELCSKQLTLSCPLCVNPVCRETKSFFTSQQL | no binding
RAB27B (protein, UniProt O00194 1-218) MTDGDYDYLIKLLALGDSGVGKTTFLYRYTDNKFNPKFITTVGIDFREKRVVYNAQGPNGSSGKAFKVHLQLWDTAGQERFRSLTTAFFRDAMGFLLMFDLTSQQSFLNVRNWMSQLQANAYCENPDIVLIGNKADLPDQREVNERQARELADKYGIPYFETSAATGQNVEKAVETLLDLIMKRMEQCVEKTQIPDTVNGGNSGNLDGEKPPEKKCIC | no binding
steroid-20,22-lyase (CYP11A1) (enzyme, UniProt P05108 40-521) ISTRSPRPFNEIPSPGDNGWLNLYHFWRETGTHKVHLHHVQNFQKYGPIYREKLGNVESVYVIDPEDVALLFKSEGPNPERFLIPPWVAYHQYYQRPIGVLLKKSAAWKKDRVALNQEVMAPEATKNFLPLLDAVSRDFVSVLHRRIKKAGSGNYSGDISDDLFRFAFESITNVIFGERQGMLEEVVNPEAQRFIDAIYQMFHTSVPMLNLPPDLFRLFRTKTWKDHVAAWDVIFSKADIYTQNFYWELRQKGSVHHDYRGILYRLLGDSKMSFEDIKANVTEMLAGGVDTTSMTLQWHLYEMARNLKVQDMLRAEVLAARHQAQGDMATMLQLVPLLKASIKETLRLHPISVTLQRYLVNDLVLRDYMIPAKTLVQVAIYALGREPTFFFDPENFDPTRWLSKDKNITYFRNLGFGWGVRQCLGRRIAELEMTIFLINMLENFRVEIQHLSDVGTTFNLILMPEKPISFTFWPFNQEATQQ | no binding
steroid-11β-hydroxylase (CYP11B1) (enzyme, UniProt P15538 25-503) GTRAARVPRTVLPFEAMPRRPGNRWLRLLQIWREQGYEDLHLEVHQTFQELGPIFRYDLGGAGMVCVMLPEDVEKLQQVDSLHPHRMSLEPWVAYRQHRGHKCGVFLLNGPEWRFNRLRLNPEVLSPNAVQRFLPMVDAVARDFSQALKKKVLQNARGSLTLDVQPSIFHYTIEASNLALFGERLGLVGHSPSSASLNFLHALEVMFKSTVQLMFMPRSLSRWTSPKVWKEHFEAWDCIFQYGDNCIQKIYQELAFSRPQQYTSIVAELLLNAELSPDAIKANSMELTAGSVDTTVFPLLMTLFELARNPNVQQALRQESLAAAASISEHPQKATTELPLLRAALKETLRLYPVGLFLERVASSDLVLQNYHIPAGTLVRVFLYSLGRNPALFPRPERYNPQRWLDIRGSGRNFYHVPFGFGMRQCLGRRLAEAEMLLLLHHVLKHLQVETLTQEDIKMVYSFILRPSMFPLLTFRAIN | no binding
NADPH-adrenodoxin reductase (ADR) (enzyme, UniProt P22570 33-491) STQEKTPQICVVGSGPAGFYTAQHLLKHPQAHVDIYEKQPVPFGLVRFGVAPDHPEVKNVINTFTQTAHSGRCAFWGNVEVGRDVTVPELREAYHAVVLSYGAEDHRALEIPGEELPGVCSARAFVGWYNGLPENQELEPDLSCDTAVILGQGNVALDVARILLTPPEHLERTDITKAALGVLRQSRVKTVWLVGRRGPLQVAFTIKELREMIQLPGARPILDPVDFLGLQDKIKEVPRPRKRLTELLLRTATEKPGPAEAARQASASRAWGLRFFRSPQQVLPSPDGRRAAGVRLAVTRLEGVDEATRAVPTGDMEDLPCGLVLSSIGYKSRPVDPSVPFDSKLGVIPNVEGRVMDVPGLYCSGWVKRGPTGVIATTMTDSFLTGQMLLQDLKAGLLPSGPRPGYAAIQALLSSRGVRPVSFSDWEKLDAEEVARGQGTGKPREKLVDPQEMLRLLGH | no binding
adrenodoxin (ADX) (protein, UniProt P10109 61-184) SSSEDKITVHFINRDGETLTTKGKVGDSLLDVVVENNLDIDGFGACEGTLACSTCHLIFEDHIYEKLDAITDEENDMLDLAYGLTDRSRLGCQICLTKSMDNMTVRVPETVADARQSIDVGKTS | no binding

No constants are given. Whether binding was seen depends on the method and setting. For some of these results: Binding calls can cover weak binding; strength is not graded here.
